Reference: the supplement of paper PMC12595434, “Development of retinoid nuclear receptor pathway antagonists through targeting aldehyde dehydrogenase 1A3” (iScience, 2025)
This is one part of the list. This is a noisy data set.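 Tm was set to 64 °C where no melting was found, and many curves are irregular.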

Chains of the proteins cited; added tags and fusions are not shown. Lines headed by an entry give the natural chain unless they say otherwise; changes in a name come on top.
UniProt Q9NWX6: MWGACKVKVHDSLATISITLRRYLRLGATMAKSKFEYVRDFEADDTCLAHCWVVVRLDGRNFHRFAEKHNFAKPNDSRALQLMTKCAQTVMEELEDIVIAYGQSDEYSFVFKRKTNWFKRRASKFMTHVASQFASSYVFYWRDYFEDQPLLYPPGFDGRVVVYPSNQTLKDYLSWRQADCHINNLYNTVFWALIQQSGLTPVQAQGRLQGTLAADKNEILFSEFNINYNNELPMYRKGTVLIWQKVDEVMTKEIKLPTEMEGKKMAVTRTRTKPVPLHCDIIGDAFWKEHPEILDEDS
UniProt Q9UBB4: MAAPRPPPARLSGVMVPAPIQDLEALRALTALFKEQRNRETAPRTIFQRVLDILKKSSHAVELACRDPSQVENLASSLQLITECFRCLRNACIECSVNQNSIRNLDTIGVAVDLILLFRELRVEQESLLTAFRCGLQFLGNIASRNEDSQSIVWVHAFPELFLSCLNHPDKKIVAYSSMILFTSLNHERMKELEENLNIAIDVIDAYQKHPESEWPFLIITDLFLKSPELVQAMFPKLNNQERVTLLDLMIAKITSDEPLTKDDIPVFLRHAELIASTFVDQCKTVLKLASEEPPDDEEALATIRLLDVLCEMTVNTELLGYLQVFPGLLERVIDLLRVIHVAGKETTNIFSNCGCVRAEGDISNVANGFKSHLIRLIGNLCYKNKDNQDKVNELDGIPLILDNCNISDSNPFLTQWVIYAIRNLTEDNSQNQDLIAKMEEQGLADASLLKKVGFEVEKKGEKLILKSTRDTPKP
UniProt Q9NWT6: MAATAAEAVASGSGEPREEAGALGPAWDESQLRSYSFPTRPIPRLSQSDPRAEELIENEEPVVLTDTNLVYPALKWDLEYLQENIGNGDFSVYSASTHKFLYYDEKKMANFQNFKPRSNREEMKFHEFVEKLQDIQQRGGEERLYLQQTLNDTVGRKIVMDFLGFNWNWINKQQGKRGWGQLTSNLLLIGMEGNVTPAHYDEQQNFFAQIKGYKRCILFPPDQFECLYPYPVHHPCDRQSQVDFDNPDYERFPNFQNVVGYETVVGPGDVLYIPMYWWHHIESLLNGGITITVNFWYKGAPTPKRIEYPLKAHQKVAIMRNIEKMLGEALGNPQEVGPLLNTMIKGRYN
UniProt Q9NVM4: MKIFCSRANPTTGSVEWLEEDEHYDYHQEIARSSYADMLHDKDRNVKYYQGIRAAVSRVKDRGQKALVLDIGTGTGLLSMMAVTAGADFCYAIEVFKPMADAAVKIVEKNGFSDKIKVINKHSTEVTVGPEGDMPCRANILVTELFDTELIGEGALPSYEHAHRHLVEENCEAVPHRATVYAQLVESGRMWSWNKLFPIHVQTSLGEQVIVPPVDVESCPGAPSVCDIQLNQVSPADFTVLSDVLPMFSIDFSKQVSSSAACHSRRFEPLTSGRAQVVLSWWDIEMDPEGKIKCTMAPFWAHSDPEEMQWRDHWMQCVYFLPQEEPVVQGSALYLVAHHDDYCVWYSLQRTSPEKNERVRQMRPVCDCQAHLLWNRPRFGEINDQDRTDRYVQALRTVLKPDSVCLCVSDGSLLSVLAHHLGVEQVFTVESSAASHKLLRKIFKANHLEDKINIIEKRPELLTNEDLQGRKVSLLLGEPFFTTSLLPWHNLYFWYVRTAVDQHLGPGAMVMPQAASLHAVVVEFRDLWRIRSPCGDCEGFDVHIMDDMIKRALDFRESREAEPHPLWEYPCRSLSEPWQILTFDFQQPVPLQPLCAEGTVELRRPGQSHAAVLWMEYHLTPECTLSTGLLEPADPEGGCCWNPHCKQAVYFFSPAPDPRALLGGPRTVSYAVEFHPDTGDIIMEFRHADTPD
UniProt Q9P1Q0: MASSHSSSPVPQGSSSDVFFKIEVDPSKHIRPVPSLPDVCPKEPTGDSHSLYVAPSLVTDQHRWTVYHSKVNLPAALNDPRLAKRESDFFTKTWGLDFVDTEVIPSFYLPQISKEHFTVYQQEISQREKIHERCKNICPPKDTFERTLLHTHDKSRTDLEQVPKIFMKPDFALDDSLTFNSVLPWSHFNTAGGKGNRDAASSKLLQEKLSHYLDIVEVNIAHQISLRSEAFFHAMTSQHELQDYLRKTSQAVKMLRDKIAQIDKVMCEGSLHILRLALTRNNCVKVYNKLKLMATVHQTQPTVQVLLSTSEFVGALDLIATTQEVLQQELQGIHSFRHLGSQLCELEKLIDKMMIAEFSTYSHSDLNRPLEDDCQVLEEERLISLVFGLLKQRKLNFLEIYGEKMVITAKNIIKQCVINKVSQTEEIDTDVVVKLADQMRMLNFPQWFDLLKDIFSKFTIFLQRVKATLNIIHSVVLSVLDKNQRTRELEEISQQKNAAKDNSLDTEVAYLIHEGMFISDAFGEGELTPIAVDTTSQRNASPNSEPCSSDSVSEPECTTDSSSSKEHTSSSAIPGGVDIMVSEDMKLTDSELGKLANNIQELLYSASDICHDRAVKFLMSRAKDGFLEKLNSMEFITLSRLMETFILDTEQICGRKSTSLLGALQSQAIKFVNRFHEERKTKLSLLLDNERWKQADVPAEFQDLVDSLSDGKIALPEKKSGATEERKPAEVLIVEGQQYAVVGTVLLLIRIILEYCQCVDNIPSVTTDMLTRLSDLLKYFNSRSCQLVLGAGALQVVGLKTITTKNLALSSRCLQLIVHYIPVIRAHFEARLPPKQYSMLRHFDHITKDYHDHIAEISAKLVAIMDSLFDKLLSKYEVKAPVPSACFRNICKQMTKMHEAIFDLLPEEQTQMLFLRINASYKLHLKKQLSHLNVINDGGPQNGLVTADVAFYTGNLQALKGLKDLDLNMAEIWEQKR
UniProt Q9NWS0, whole entry: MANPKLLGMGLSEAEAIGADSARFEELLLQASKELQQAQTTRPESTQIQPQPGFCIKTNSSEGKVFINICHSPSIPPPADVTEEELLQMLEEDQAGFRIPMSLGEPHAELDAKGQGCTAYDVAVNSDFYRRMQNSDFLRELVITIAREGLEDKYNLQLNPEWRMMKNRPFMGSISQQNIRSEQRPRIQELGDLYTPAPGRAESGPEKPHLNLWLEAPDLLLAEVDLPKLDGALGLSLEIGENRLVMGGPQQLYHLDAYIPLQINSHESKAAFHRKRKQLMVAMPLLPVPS
UniProt Q9NY27: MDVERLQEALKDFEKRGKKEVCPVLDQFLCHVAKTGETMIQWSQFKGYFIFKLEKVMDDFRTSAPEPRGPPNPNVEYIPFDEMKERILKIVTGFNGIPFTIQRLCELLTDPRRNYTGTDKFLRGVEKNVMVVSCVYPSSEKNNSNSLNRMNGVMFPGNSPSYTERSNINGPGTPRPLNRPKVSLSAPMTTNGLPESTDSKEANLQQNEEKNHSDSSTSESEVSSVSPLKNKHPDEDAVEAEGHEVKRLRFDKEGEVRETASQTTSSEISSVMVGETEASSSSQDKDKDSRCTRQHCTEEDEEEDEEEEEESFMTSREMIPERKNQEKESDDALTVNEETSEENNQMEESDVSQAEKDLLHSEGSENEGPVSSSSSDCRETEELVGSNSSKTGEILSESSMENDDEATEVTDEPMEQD
UniProt Q9NWK9: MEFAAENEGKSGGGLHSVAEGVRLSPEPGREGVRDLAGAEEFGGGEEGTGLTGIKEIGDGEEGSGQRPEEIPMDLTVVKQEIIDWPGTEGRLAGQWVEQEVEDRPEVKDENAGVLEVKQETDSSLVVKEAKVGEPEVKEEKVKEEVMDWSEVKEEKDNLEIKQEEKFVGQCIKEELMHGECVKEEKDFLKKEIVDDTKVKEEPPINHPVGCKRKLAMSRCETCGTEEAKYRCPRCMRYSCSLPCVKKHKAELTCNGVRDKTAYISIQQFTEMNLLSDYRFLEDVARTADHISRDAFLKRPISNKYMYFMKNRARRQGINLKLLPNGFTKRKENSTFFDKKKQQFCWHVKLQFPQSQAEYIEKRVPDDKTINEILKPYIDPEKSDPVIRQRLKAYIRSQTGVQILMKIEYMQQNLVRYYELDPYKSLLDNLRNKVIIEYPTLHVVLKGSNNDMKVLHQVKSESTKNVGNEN
UniProt Q9NWD8: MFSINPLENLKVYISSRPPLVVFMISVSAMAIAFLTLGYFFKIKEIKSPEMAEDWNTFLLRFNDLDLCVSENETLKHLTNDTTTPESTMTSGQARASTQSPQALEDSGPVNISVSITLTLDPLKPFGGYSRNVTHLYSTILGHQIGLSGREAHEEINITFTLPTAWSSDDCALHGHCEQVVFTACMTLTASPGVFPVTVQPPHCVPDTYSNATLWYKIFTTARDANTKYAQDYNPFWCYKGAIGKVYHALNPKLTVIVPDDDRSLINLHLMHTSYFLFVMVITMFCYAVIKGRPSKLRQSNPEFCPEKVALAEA
UniProt Q9NZU5: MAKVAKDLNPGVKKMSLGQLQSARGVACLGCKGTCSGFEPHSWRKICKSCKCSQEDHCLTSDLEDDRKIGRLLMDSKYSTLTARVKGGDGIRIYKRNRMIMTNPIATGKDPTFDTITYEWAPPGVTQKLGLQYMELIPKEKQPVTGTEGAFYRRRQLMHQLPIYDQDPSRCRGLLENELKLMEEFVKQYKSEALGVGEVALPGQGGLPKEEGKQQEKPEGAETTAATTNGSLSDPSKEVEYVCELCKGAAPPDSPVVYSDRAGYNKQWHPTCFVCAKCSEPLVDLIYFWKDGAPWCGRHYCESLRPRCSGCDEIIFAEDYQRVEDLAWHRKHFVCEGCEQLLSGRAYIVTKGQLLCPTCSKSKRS
UniProt Q9NWT1: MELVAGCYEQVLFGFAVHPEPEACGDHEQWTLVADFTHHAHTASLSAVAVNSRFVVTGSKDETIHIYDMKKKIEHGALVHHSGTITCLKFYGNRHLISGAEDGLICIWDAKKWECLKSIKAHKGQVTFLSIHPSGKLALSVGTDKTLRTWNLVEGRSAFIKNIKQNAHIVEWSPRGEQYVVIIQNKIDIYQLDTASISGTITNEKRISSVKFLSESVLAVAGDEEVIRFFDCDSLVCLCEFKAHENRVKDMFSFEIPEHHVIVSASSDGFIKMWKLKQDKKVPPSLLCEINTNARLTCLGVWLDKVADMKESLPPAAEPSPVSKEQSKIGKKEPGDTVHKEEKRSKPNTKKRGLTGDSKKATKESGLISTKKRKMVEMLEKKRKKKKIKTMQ
UniProt Q9NX08, whole entry: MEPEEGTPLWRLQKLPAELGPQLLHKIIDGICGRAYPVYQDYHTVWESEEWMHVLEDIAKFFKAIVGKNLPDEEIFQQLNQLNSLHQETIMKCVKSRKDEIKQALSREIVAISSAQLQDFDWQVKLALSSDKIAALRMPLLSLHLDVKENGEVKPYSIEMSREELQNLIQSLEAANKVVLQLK
UniProt Q9NXA8: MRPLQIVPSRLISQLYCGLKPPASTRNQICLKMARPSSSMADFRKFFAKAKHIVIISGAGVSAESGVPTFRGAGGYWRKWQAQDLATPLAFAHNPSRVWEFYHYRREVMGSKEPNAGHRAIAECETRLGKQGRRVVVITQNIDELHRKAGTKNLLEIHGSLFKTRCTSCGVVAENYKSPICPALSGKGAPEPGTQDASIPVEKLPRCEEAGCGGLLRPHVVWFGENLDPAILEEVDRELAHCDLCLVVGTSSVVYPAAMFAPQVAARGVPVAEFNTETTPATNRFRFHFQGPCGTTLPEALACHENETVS
UniProt Q9P2B2: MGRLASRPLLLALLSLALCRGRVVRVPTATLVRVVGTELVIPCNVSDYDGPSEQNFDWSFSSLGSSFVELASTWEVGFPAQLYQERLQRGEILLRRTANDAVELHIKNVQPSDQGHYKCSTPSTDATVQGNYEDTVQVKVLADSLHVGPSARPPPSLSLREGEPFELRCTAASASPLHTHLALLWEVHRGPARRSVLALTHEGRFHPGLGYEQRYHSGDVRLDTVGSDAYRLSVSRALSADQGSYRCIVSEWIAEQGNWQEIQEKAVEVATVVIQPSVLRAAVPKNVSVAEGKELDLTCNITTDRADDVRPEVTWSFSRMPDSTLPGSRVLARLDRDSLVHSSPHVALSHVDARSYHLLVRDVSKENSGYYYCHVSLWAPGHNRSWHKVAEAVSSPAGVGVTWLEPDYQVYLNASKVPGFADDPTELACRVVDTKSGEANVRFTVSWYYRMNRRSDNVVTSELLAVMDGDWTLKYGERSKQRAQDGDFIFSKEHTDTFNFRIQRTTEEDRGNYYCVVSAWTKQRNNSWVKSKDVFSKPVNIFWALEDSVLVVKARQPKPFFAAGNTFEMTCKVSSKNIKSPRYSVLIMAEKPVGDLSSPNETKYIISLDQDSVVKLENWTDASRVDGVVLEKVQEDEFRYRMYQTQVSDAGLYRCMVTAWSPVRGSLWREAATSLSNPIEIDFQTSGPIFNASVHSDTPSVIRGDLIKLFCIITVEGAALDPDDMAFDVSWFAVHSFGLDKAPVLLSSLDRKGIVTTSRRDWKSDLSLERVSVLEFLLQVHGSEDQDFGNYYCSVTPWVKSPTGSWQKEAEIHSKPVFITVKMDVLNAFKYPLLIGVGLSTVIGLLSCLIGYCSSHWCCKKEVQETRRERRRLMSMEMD

Compound: CCc1cnccc1C(=O)Nc1cc2c(cc1F)NC(=O)CC2
Assay: melting temperature shift (DMSO Tm minus MBE1-treated Tm) in cellular thermal proteome profiling; higher = less thermal stabilization by MBE1 (negative = stabilized by MBE1)
Conditions: A375

| Target | melting temperature shift (MBE1 concentration: 100 nM) | melting temperature shift (MBE1 concentration: 1 uM) |
| --- | --- | --- |
| GGA3 (UniProt Q9NZ52) | 0.0244 °C | -0.855 °C |
| NSMCE4A (UniProt Q9NXX6) | 1.05 °C | 1.38 °C |
| OXSM (UniProt Q9NWU1) | -1.47 °C | -3.35 °C |
| THG1L (UniProt Q9NWX6) | -1.68 °C | 11.5 °C |
| TERF2IP (UniProt Q9NYB0) | 0.812 °C | -0.122 °C |
| ATXN10 (UniProt Q9UBB4) | 0.147 °C | 0.397 °C |
| HIF1AN (UniProt Q9NWT6) | -1.39 °C | -0.324 °C |
| PRMT7 (UniProt Q9NVM4) | -0.198 °C | -0.908 °C |
| UniProt Q9P1Q0 | -4.75 °C | -0.33 °C |
| UTP6 (UniProt Q9NYH9) | -0.359 °C | -0.653 °C |
| CTSZ (UniProt Q9UBR2) | -0.366 °C | -0.0427 °C |
| UniProt Q9NX70 | -0.602 °C | -3.34 °C |
| RERE (UniProt Q9P2R6) | -2.3 °C | -5.19 °C |
| TMOD3 (UniProt Q9NYL9) | 0.249 °C | -0.183 °C |
| GMIP (UniProt Q9P107) | 0.585 °C | -0.83 °C |
| IRAK4 (UniProt Q9NWZ3) | 0.449 °C | -1.3 °C |
| USE1 (UniProt Q9NZ43) | 0.22 °C | -1.18 °C |
| POLR3B (UniProt Q9NW08) | -1.2 °C | -0.454 °C |
| PIH1D1 (UniProt Q9NWS0) | 0.879 °C | 0.379 °C |
| UniProt Q9NVR2 | 0.721 °C | 0.562 °C |
| TENM3 (UniProt Q9P273) | -2.23 °C | -0.25 °C |
| PPP4R2 (UniProt Q9NY27) | -0.311 °C | 0.318 °C |
| ZNHIT6 (UniProt Q9NWK9) | -0.269 °C | -0.532 °C |
| NCDN (UniProt Q9UBB6) | 0.887 °C | 0.0672 °C |
| DDX56 (UniProt Q9NY93) | -0.00611 °C | 0.0122 °C |
| UniProt Q9NY61 | -0.0192 °C | -0.41 °C |
| UniProt Q9NWD8 | 2.35 °C | -4.58 °C |

| Target | melting temperature shift (MBE1 concentration: 100 nM) | melting temperature shift (MBE1 concentration: 1 uM) |
| --- | --- | --- |
| MARK1 (UniProt Q9P0L2) | -0.983 °C | -1.87 °C |
| HACD3 (UniProt Q9P035) | -0.828 °C | 0.241 °C |
| RCOR3 (UniProt Q9P2K3) | -0.541 °C | -0.807 °C |
| WDR70 (UniProt Q9NW82) | -1.07 °C | 0.0604 °C |
| UniProt Q9NZU5 | 0.159 °C | -0.293 °C |
| RIC8B (UniProt Q9NVN3) | 0.63 °C | 0.0794 °C |
| NXF1 (UniProt Q9UBU9) | -0.243 °C | -0.128 °C |
| ACTR10 (UniProt Q9NZ32) | -1.55 °C | -1.26 °C |
| KBTBD4 (UniProt Q9NVX7) | 0.168 °C | 0.852 °C |
| PAK1IP1 (UniProt Q9NWT1) | -1.07 °C | -1.46 °C |
| UniProt Q9NYV4 | -0.161 °C | 1.01 °C |
| NECAP2 (UniProt Q9NVZ3) | -0.83 °C | 0.0366 °C |
| UniProt Q9NX08 | 1.4 °C | 0.623 °C |
| UniProt Q9NZI6 | -0.889 °C | -0.842 °C |
| RMND1 (UniProt Q9NWS8) | -0.749 °C | -0.11 °C |
| SIRT5 (UniProt Q9NXA8) | 1.31 °C | -0.293 °C |
| CPSF2 (UniProt Q9P2I0) | -1.05 °C | -0.315 °C |
| GID8 (UniProt Q9NWU2) | 1.31 °C | 0.336 °C |
| UniProt Q9NZV5 | 0.452 °C | 0.00611 °C |
| SLAIN2 (UniProt Q9P270) | -3.2 °C | -0.369 °C |
| UniProt Q9P2J3 | 0.358 °C | 0.0333 °C |
| UniProt Q9NWY4 | 0.0705 °C | 0.0961 °C |
| KIAA1468 (UniProt Q9P260) | 0.69 °C | 0.415 °C |
| ADPRHL2 (UniProt Q9NX46) | -0.537 °C | 0.396 °C |
| ABI2 (UniProt Q9NYB9) | 0.25 °C | 0.342 °C |
| PTGFRN (UniProt Q9P2B2) | -3.39 °C | -3 °C |

Part of the list above, set out differently:
Target | melting temperature shift (MBE1 concentration: 100 nM) | melting temperature shift (MBE1 concentration: 1 uM)
UniProt Q9NWY4 | 0.0705 °C | 0.0961 °C
KIAA1468 (UniProt Q9P260) | 0.69 °C | 0.415 °C
